Results from patent US6676946B2 (priority 1997, dated 2004).
“Also recorded” adds a separate entry of the source. Not every detail of the peptide structures is certain; ends, links or a residue may be inferred. Some entries repeat one wording, which the source may state once for all of them. Peptide text beside a SMILES is read from it. * marks the point of attachment. αGalNAc = CC(=O)N[C@@H]1[C@@H](O)[C@@H](O)[C@@H](CO)O[C@@H]1*

Tests used:
[1] = test system: T cell hybridomas 45G10 (specific for 103-115 poliovirus peptide); assay type: cell-based
lymph node (LN) cells = test system: lymph node (LN) cells; design: species or system BALB/c mice; conditions: mouse, in vivo, sc
[2] = test system: MLS 128 (IgG) anti-Tn monoclonal antibody; assay type: binding, mouse
Tn antigen = test system: Tn antigen; design: species or system mice; conditions: mouse, in vivo, ip
MLS128 mAb = assay type: binding, mouse
[3] = test system: Tn3G6K(Biot)G glycopeptide; design: species or system BALB/c mice; conditions: mouse, in vivo
STTG6K(Biot)G peptide = test system: STTG6K(Biot)G peptide; design: species or system BALB/c mice; conditions: mouse, in vivo
[4] = test system: T cell hybridoma 45G10 specific for PV; assay type: cell-based
[5] = test system: human Jurkat tumor cell line; conditions: in vivo

| Compound | recognition by PV-specific T-cell hybridoma [1] | proliferative T response specific for the T epitope (lymph node (LN) cells) | recognition of the Tn motif by the MLS 128 mAb, direct ELISA [2] | induction of IgM antibodies specific for the Tn antigen (Tn antigen) | inhibition of MLS128 binding to Tn3G6K(Biot)G (MLS128 mAb) | anti-Tn IgG antibodies [3] | sera binding to unglycosylated STTG6K(Biot)G peptide (STTG6K(Biot)G peptide) | stimulation of the 45G10 T cell hybrid [4] | anti-Tn IgM antibodies [3] | binding of sera to Jurkat cells [5] | competition with a-OSM for MLS 128 binding (MLS128 mAb) | increase of antigenicity of the T cell epitope compared to unglycosylated PV peptide [4] [fold] |
| --- | --- | --- | --- | --- | --- | --- | --- | --- | --- | --- | --- | --- |
| CC[C@H](C)[C@H](NC(=O)[C@H](CCCCN)NC(=O)[C@H](Cc1c[nH]c2ccccc12)NC(=O)[C@@H](NC(=O)[C@H](C)NC(=O)[C@H](Cc1ccccc1)NC(=O)[C@H](CC(C)C)NC(=O)[C@H](CCCCN)NC(=O)[C@@H](N)CO[C@H]1O[C@H](CO)[C@H](O)[C@H](O)[C@H]1NC(C)=O)C(C)C)C(=O)N[C@H](C(=O)N[C@@H](Cc1ccc(O)cc1)C(=O)N[C@@H](CCCCN)C(=O)N[C@@H](CC(=O)O)C(=O)N[C@H](C(=O)O)[C@@H](C)O)[C@@H](C)O (relative stereo) [Tn-PV] | recognize | induce in vivo a proliferative T response | are not | unable to induce anti-Tn antibodies | incapacity | did not induce any Tn antibody | No sera binding was observed | stimulate | – | – | – | – |
| CC[C@H](C)[C@H](NC(=O)[C@H](CCCCN)NC(=O)[C@H](Cc1c[nH]c2ccccc12)NC(=O)[C@@H](NC(=O)[C@H](C)NC(=O)[C@H](Cc1ccccc1)NC(=O)[C@H](CC(C)C)NC(=O)[C@H](CCCCN)NC(=O)[C@@H](CO[C@H]1O[C@H](CO)[C@H](O)[C@H](O)[C@H]1NC(C)=O)NC(=O)[C@@H](CO[C@H]1O[C@H](CO)[C@H](O)[C@H](O)[C@H]1NC(C)=O)NC(=O)[C@H](N)CO[C@H]1O[C@H](CO)[C@H](O)[C@H](O)[C@H]1NC(C)=O)C(C)C)C(=O)N[C@H](C(=O)N[C@@H](Cc1ccc(O)cc1)C(=O)N[C@@H](CCCCN)C(=O)N[C@@H](CC(=O)O)C(=O)N[C@H](C(=O)O)[C@@H](C)O)[C@@H](C)O (relative stereo) [D-(Tn3)-PV] | – | – | also recognized | – | – | induced anti-Tn IgG antibodies | No sera binding was observed | – | detected | bound this human cell line | – | – |
| CC(=O)N[C@H]1[C@@H](OC[C@H](N)C(=O)N[C@H](C(=O)N[C@H](C(=O)NCC(=O)NCC(=O)NCC(=O)NCC(=O)NCC(=O)NCC(=O)N[C@@H](CCCCN)C(=O)NCC(=O)O)[C@@H](C)O[C@H]2O[C@H](CO)[C@H](O)[C@H](O)[C@H]2NC(C)=O)[C@@H](C)O[C@H]2O[C@H](CO)[C@H](O)[C@H](O)[C@H]2NC(C)=O)O[C@H](CO)[C@H](O)[C@@H]1O (relative stereo) [Tn3G6KG] (H-S(αGalNAc)T(αGalNAc)T(αGalNAc)GGGGGGKG-OH) | – | – | – | – | similar; also recorded: only slightly affected | – | – | – | – | – | competes efficiently | – |
| CC[C@H](C)[C@H](NC(=O)[C@H](CCCCN)NC(=O)[C@H](Cc1c[nH]c2ccccc12)NC(=O)[C@@H](NC(=O)[C@H](C)NC(=O)[C@H](Cc1ccccc1)NC(=O)[C@H](CC(C)C)NC(=O)[C@H](CCCCN)NC(=O)[C@@H](NC(=O)[C@@H](NC(=O)[C@@H](N)CO[C@H]1O[C@H](CO)[C@H](O)[C@H](O)[C@H]1NC(C)=O)[C@@H](C)O[C@H]1O[C@H](CO)[C@H](O)[C@H](O)[C@H]1NC(C)=O)[C@@H](C)O[C@H]1O[C@H](CO)[C@H](O)[C@H](O)[C@H]1NC(C)=O)C(C)C)C(=O)N[C@H](C(=O)N[C@@H](Cc1ccc(O)cc1)C(=O)N[C@@H](CCCCN)C(=O)N[C@@H](CC(=O)O)C(=O)N[C@H](C(=O)O)[C@@H](C)O)[C@@H](C)O (relative stereo) [Tn3-PV] | – | – | efficiently recognized | – | only slightly affected | somewhat higher | No sera binding was observed | stimulate | slightly lower antibody response | bound this human cell line | – | ~100 |
| CC(=O)N[C@H]1[C@@H](OC[C@H](NC(=O)CNC(=O)CNC(=O)CNC(=O)CNC(=O)[C@@H](N)CCCCN)C(=O)N[C@H](C(=O)N[C@H](C(=O)NCC(=O)NCC(=O)NCC(=O)O)[C@@H](C)O[C@H]2O[C@H](CO)[C@H](O)[C@H](O)[C@H]2NC(C)=O)[C@@H](C)O[C@H]2O[C@H](CO)[C@H](O)[C@H](O)[C@H]2NC(C)=O)O[C@H](CO)[C@H](O)[C@@H]1O (relative stereo) [KG4Tn3G3, KGGGGS*T*T*GGG] (H-KGGGGS(αGalNAc)T(αGalNAc)T(αGalNAc)GGG-OH) | – | – | – | – | similar | – | – | – | – | – | – | – |
